In publication PMC6509284, “Aurora B-INCENP Localization at Centromeres/Inner Kinetochores Is Required for Chromosome Bi-orientation in Budding Yeast” (Current Biology, 2019):
No constants are given. Whether binding was seen depends on the method and setting. Some results given as binding are weak or reduced against the parent protein; the word gives no strength. Sequences can lack the tags named with a protein.

Chains of the proteins cited; added tags and fusions are not shown. Lines headed by an entry give the natural chain unless they say otherwise; changes in a name come on top.
UniProt Q06675: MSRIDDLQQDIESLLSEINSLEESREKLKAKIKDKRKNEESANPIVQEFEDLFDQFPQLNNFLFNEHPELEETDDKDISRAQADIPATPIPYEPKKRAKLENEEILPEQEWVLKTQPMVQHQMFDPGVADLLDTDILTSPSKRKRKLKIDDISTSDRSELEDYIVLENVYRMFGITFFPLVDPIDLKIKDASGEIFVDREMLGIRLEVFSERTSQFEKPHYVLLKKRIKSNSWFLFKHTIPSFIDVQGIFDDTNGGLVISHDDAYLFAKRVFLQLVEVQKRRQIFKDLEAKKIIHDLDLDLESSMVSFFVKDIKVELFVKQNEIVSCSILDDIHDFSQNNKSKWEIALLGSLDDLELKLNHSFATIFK

T1: Sli15 fused to the Gal4 DNA-binding domain (budding yeast (S. cerevisiae)) (UniProt P38283)
T1 sequence: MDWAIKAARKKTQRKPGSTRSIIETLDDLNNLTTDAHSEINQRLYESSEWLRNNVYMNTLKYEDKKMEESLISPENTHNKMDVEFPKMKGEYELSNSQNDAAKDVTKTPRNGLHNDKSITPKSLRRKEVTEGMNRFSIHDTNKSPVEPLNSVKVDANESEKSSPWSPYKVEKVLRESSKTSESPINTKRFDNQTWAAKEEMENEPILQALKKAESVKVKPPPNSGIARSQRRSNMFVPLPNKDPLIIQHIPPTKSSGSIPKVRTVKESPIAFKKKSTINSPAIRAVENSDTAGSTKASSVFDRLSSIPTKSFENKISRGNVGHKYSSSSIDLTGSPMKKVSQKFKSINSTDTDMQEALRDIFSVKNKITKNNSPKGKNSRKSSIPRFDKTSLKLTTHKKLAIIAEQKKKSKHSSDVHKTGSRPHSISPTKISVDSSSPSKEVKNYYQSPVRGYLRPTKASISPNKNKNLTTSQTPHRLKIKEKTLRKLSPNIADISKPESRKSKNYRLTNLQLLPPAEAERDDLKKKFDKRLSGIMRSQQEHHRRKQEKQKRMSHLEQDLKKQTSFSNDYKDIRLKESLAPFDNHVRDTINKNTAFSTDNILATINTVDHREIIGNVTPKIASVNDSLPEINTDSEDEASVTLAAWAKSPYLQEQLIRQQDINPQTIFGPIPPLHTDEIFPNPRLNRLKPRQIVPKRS

T2: Sli15ΔN fused to the Gal4 DNA-binding domain (budding yeast (S. cerevisiae)) (UniProt P38283)
T2 sequence: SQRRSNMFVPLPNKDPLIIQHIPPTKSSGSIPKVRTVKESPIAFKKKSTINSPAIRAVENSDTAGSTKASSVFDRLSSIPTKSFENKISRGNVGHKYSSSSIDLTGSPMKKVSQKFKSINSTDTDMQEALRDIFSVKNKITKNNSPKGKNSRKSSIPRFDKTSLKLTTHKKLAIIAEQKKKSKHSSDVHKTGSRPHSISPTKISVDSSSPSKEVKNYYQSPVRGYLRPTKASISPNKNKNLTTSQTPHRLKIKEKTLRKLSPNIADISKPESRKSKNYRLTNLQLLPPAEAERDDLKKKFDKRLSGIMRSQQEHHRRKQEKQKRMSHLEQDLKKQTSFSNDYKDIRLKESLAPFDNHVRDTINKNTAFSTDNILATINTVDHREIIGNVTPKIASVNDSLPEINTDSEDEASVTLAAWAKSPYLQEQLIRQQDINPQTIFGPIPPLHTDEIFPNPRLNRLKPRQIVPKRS

T3: Inn1 fused to the Gal4 DNA-binding domain (budding yeast (S. cerevisiae)) (UniProt P53901)
T3 sequence: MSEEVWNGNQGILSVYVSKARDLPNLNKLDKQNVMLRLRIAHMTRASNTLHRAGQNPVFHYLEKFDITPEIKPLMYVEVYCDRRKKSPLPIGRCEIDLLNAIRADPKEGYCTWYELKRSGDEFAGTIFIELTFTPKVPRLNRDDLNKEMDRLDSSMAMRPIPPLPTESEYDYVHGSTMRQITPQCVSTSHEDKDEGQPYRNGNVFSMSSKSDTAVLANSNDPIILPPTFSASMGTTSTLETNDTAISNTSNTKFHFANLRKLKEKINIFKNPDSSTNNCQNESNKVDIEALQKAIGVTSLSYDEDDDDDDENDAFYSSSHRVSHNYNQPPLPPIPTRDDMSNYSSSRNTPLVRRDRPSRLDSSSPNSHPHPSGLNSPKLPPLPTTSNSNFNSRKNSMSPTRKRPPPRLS

B1: Hof1 fused to the Gal4 transcriptional activation domain (protein, UniProt Q05080 1-669)
chain: MSYSYEACFWDPNDNGVNILLGHISQGIRSCDSMILFFKQRSELEKDYARRLGAITGKLDKDIGTNMDYGKLNETFNVVLSVEKARAQSHSKQSEILFRQIYTDTKAFAANLQARYTTLSGKIERLRMDKFNKKKGCEVLQKKLQDAQIRFRDLQLNENNMIGAKRVEHNKRELLKWESNSQEYKVQLDVLKQEYKASQKFWIHEWAQLSCELQEMENARISFLQSKLQQFATSSMETYILEQTKMDMLTNHLNSFTAADEISTFSKENGTGRLKHKTSKGDMNSSANWAQMSSISTTSKKTESYMDNIRKLSSQLKETENKRKLASIDKYEKPLPSPEVTMATQFRNSTPVIRNETKVVANPTLSLRSSPVQLQSNVDDSVLRQKPDKPRPIVGEEQLKPDEDSKNPDEKGLMVHKRNQSLSSPSESSSSNPTDFSHIKKRQSMESMTTSVSSMANSIDDSQRFAKSWNSSNRKRKSMSHLQVPSSASSRSDDGGRTPNSAHNLNEDDYNTRRDTSTSTILFKPPVAVRGTSRGHTHRQSMIMQDSSNPIEDALYEMERIQSSSKPGTKTGNIMDERGVVRDRGITVTLPIVTSEGFPVIEYAKAMYPLIGNEAPGLANFHKGDYLLITEIVNKDWYKGEVYDNDRIDRNHRIGLIPYNFIQLLHQGL

What was measured:
Experiment in all cases: two-hybrid; Gal4 activation domain (pGADT7) and Gal4 DNA-binding domain (pGBKT7) fusions co-transformed into yeast PJ69-4A; growth on SC lacking tryptophan, leucine, histidine and adenine; 30°C for 2 days
[1] = target: T1, Sli15 fused to the Gal4 DNA-binding domain (budding yeast (S. cerevisiae))
[2] = target: T2, Sli15ΔN fused to the Gal4 DNA-binding domain (budding yeast (S. cerevisiae))
[3] = target: T3, Inn1 fused to the Gal4 DNA-binding domain (budding yeast (S. cerevisiae))

| Molecule | binding [1] | binding [2] | binding [3] |
| --- | --- | --- | --- |
| Mcm21 fused to the Gal4 transcriptional activation domain (from UniProt Q06675 1-368) | binds | binds | – |
| Mcm21ΔN fused to the Gal4 transcriptional activation domain (from UniProt Q06675 51-368) (domain or fragment) | binds | – | – |
| B1 | – | – | binds |
